Results as given in article PMC11555713.
These are yes or no findings as the source states them, for the method shown. Binding seen in cells or lysates may run through a third protein. Some binding calls cover weakened binding; strength is not graded here. Values belong to the molecule of their own block, whether it stands above or below them.

The chains behind the UniProt entries cited, without tags or fusion partners. Where a name states a change or a piece, a line headed by the entry shows the natural chain unless it says otherwise.
UniProt Q9BXL6: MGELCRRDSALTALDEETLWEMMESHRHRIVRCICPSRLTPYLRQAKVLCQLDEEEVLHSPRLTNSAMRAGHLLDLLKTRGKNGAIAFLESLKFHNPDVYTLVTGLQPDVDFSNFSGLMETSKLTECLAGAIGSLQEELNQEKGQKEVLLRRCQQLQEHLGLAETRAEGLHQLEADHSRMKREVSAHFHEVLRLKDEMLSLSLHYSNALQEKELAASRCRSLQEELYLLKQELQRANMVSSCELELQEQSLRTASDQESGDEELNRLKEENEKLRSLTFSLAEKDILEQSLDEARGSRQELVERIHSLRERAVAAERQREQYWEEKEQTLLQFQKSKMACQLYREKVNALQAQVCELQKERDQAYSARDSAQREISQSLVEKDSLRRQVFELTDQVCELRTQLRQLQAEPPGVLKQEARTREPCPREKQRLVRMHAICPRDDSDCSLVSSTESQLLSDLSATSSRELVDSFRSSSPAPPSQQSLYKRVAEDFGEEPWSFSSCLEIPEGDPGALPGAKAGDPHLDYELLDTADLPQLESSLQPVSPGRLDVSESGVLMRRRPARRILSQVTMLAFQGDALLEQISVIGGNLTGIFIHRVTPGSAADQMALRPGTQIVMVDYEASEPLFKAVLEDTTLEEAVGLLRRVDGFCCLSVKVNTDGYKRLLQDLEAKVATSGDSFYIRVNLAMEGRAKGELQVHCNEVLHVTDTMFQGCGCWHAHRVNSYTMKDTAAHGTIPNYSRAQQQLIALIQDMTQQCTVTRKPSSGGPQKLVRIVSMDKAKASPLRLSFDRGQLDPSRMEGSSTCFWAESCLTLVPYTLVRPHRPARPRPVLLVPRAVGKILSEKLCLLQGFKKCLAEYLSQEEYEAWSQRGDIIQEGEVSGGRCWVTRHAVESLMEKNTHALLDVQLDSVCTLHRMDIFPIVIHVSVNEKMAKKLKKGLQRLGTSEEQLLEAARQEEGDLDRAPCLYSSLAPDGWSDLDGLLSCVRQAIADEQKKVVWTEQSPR
UniProt Q15075: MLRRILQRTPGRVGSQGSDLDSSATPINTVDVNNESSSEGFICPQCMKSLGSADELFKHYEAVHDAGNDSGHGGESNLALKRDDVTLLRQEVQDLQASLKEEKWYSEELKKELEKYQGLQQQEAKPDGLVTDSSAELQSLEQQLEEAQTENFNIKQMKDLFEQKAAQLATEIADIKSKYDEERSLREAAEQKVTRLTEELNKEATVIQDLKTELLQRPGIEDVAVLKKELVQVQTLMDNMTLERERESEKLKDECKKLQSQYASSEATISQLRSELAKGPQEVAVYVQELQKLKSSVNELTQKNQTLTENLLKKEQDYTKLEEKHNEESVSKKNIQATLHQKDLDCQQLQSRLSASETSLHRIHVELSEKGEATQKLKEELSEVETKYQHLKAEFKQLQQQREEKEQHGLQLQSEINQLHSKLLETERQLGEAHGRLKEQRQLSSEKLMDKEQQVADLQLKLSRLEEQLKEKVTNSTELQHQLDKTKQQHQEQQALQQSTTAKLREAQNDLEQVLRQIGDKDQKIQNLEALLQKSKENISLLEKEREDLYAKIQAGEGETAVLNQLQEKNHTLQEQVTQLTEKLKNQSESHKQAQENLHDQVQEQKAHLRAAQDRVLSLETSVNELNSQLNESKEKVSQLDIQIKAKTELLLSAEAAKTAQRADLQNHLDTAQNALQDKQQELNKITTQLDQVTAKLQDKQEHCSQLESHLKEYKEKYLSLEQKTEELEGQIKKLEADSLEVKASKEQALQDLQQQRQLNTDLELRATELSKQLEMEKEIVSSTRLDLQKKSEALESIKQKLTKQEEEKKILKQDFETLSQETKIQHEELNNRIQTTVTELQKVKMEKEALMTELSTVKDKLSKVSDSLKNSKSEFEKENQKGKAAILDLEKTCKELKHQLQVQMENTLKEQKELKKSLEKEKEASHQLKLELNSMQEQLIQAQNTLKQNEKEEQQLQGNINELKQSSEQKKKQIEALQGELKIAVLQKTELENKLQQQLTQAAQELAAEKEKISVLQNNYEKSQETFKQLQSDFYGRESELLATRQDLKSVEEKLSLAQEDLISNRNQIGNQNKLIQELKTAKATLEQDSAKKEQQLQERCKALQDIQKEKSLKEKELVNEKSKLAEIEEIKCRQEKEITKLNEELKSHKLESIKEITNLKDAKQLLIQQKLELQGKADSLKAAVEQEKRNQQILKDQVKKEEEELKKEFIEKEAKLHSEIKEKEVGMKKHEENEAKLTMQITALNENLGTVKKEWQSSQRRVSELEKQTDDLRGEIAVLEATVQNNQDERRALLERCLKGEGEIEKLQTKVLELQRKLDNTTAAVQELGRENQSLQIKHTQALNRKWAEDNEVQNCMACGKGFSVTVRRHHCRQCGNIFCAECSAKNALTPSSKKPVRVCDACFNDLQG
UniProt Q96EP0: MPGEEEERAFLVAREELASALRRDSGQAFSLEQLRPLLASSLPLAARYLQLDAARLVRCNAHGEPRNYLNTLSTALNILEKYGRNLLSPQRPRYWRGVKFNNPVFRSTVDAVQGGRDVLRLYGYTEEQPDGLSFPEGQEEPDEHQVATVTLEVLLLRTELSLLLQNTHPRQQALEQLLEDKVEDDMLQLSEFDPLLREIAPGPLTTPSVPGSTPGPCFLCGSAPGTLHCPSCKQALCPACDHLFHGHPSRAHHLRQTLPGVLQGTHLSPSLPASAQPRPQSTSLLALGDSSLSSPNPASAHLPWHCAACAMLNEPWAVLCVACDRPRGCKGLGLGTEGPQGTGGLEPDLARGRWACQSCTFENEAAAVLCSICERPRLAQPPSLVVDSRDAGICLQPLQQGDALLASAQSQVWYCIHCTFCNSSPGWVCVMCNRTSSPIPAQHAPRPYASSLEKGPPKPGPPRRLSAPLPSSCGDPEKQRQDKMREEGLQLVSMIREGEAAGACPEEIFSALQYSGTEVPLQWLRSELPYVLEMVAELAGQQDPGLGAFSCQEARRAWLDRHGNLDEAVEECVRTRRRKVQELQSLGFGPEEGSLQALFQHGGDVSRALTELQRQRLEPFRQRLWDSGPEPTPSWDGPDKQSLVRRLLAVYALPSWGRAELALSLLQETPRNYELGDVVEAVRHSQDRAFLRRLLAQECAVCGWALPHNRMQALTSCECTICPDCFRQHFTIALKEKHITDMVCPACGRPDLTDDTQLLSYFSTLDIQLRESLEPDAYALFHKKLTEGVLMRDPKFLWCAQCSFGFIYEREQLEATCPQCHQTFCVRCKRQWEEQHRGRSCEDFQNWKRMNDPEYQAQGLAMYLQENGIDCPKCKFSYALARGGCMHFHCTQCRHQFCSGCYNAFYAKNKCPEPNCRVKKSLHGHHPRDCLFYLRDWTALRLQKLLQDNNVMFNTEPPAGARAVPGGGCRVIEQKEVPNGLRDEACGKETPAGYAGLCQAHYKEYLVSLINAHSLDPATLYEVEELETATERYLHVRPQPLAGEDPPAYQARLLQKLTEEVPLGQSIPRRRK
UniProt Q9UDY8: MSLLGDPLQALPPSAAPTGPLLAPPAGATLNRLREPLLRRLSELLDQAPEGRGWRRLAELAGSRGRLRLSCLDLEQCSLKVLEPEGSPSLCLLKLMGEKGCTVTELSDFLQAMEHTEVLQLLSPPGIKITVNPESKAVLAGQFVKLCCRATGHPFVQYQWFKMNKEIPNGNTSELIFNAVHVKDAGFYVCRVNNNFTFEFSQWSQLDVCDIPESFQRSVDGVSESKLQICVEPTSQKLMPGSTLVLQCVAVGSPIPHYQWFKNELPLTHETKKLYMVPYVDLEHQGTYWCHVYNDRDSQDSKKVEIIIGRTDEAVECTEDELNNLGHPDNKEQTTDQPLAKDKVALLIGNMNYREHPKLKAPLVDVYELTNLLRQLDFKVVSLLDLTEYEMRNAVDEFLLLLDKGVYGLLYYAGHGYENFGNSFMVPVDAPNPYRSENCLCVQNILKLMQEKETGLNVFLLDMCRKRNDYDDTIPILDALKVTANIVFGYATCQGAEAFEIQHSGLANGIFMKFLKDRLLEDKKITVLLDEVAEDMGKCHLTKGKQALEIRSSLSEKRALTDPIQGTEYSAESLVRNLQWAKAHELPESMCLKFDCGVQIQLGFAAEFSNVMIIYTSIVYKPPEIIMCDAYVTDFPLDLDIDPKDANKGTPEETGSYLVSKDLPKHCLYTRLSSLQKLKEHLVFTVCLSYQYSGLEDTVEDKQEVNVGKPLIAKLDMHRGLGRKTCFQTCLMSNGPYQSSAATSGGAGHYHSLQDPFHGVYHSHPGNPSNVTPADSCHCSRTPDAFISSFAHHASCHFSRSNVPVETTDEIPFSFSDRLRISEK
UniProt Q13489: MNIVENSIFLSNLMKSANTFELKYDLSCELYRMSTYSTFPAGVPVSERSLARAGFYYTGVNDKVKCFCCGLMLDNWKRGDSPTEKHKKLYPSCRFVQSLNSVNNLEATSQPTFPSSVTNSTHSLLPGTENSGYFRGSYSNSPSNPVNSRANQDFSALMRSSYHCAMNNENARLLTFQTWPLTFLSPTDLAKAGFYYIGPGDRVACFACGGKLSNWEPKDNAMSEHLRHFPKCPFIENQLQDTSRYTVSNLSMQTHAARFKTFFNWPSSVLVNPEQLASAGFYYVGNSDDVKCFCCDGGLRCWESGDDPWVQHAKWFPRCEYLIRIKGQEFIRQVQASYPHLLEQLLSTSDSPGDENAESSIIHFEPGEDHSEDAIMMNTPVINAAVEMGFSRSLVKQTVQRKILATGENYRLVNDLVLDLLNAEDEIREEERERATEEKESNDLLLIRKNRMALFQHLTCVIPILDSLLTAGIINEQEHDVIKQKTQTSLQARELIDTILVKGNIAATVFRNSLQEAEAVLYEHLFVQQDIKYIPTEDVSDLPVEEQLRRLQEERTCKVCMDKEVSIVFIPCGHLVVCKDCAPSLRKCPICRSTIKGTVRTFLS

Columns and labels:
[1] = biological target: CARD14^WT-3xFLAG (human) (UniProt Q9BXL6); assay: proximity ligation; anti-FLAG with anti-MALT1 or anti-EEA1 staining in HaCaT-TR cells ± tetracycline (3 h)
[2] = biological target: CARD14^E138A-3xFLAG (human) (UniProt Q9BXL6); assay: co-IP; anti-FLAG M2 agarose, 4°C 2 h, from HaCaT-TR lysates after 3 h tetracycline; lysis buffer 150 mM NaCl, 50 mM Tris pH 7.5, 10% glycerol, 0.25% Triton X-100; immunoblot of endogenous partners; also done in HOIP-, TRAF6-, A20-, ABIN1-, TRAF2-, cIAP2-deficient and birinapant-treated (cIAP1-depleted) cells
[3] = biological target: CARD14^E138A-3xFLAG (human) (UniProt Q9BXL6); assay: proximity ligation; anti-FLAG with anti-MALT1 or anti-EEA1 staining in HaCaT-TR cells ± tetracycline (3 h)
[4] = biological target: CARD14^WT-3xFLAG (human) (UniProt Q9BXL6); assay: co-IP; anti-FLAG M2 agarose, 4°C 2 h, from HaCaT-TR lysates after 3 h tetracycline; lysis buffer 150 mM NaCl, 50 mM Tris pH 7.5, 10% glycerol, 0.25% Triton X-100; immunoblot of endogenous partners; also done in HOIP-, TRAF6-, A20-, ABIN1-, TRAF2-, cIAP2-deficient and birinapant-treated (cIAP1-depleted) cells

- binding [1]: no binding
Molecule: EEA1 (from UniProt Q15075 1-1411)

- binding [2]: binds
Molecule: HOIP (RNF31) (from UniProt Q96EP0 1-1072)

- binding [3]: binds
- binding [1]: no binding
- binding [2]: binds
- binding [4]: no binding
Molecule: MALT1 (Mucosa-associated lymphoid tissue lymphoma translocation protein 1) (from UniProt Q9UDY8 1-824)

- binding [2]: binds
Molecule: cIAP2 (BIRC3) (from UniProt Q13489 1-604)

- binding [2]: binds
B1: BCL10 (B cell lymphoma protein 10) (protein, UniProt O95999 1-233)
chain: MEPTAPSLTEEDLTEVKKDALENLRVYLCEKIIAERHFDHLRAKKILSREDTEEISCRTSSRKRAGKLLDYLQENPKGLDTLVESIRREKTQNFLIQKITDEVLKLRNIKLEHLKGLKCSSCEPFPDGATNNLSRSNSDESNFSEKLRASTVMYHPEGESSTTPFFSTNSSLNLPVLEVGRTENTIFSSTTLPRPGDPGAPPLPPDLQLEEEGTCANSSEMFLPLRSRTVSRQ

- binding [2]: binds
B2: TAK1 (protein, UniProt O43318 1-606)
chain: MSTASAASSSSSSSAGEMIEAPSQVLNFEEIDYKEIEVEEVVGRGAFGVVCKAKWRAKDVAIKQIESESERKAFIVELRQLSRVNHPNIVKLYGACLNPVCLVMEYAEGGSLYNVLHGAEPLPYYTAAHAMSWCLQCSQGVAYLHSMQPKALIHRDLKPPNLLLVAGGTVLKICDFGTACDIQTHMTNNKGSAAWMAPEVFEGSNYSEKCDVFSWGIILWEVITRRKPFDEIGGPAFRIMWAVHNGTRPPLIKNLPKPIESLMTRCWSKDPSQRPSMEEIVKIMTHLMRYFPGADEPLQYPCQYSDEGQSNSATSTGSFMDIASTNTSNKSDTNMEQVPATNDTIKRLESKLLKNQAKQQSESGRLSLGASRGSSVESLPPTSEGKRMSADMSEIEARIAATTAYSKPKRGHRKTASFGNILDVPEIVISGNGQPRRRSIQDLTVTGTEPGQVSSRSSSPSVRMITTSGPTSEKPTRSHPWTPDDSTDTNGSDNSIPMAYLTLDHQLQPLAPCPNSKESMAVFEQHCKMAQEYMKVQTEIALLLQRKQELVAELDQDEKDQQNTSRLVQEHKKLLDENKSLSTYYQQCKKQLEVIRSQQQKRQGTS
